# Measurements: paper doi:10.1101/2025.10.22.676442
# By UniProt entry, the sequences of proteins in these tests, tags left out.
# UniProt P03431: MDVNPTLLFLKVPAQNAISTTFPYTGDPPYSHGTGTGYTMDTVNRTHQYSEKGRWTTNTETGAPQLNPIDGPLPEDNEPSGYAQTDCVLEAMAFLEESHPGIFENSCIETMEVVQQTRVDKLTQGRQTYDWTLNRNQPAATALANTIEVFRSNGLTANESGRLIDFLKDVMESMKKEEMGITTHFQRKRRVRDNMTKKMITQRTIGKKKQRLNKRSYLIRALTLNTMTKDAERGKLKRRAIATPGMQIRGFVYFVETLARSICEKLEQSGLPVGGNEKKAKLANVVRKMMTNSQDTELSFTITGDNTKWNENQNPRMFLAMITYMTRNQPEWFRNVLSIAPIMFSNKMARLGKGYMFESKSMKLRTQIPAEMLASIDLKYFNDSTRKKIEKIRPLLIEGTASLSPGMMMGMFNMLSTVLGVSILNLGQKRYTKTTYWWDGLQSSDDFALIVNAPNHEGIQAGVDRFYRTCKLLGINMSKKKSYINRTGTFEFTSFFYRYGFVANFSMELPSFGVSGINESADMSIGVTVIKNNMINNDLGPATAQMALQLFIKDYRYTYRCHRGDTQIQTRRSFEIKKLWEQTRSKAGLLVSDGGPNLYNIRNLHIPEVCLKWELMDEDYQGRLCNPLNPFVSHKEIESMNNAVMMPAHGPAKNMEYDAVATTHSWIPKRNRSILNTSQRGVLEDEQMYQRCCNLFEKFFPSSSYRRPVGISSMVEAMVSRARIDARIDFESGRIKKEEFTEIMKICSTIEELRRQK
# UniProt P03496: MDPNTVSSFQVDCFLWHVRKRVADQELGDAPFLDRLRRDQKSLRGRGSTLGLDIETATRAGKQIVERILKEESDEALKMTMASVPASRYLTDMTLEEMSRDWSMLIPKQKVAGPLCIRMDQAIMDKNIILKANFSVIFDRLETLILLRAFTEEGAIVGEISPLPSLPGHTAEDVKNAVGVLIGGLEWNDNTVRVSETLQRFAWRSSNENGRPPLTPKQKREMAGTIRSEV
# No constants are given. Whether binding was seen depends on the method and setting. Binding seen in cells or lysates may run through a third protein. Some binding calls cover weakened binding; strength is not graded here. Sequences can lack the tags named with a protein.
# B1: TLR7 (A549 cells) (receptor, UniProt Q9NYK1 27-1049)
# chain: ARWFPKTLPCDVTLDVPKNHVIVDCTDKHLTEIPGGIPTNTTNLTLTINHIPDISPASFHRLDHLVEIDFRCNCVPIPLGSKNNMCIKRLQIKPRSFSGLTYLKSLYLDGNQLLEIPQGLPPSLQLLSLEANNIFSIRKENLTELANIEILYLGQNCYYRNPCYVSYSIEKDAFLNLTKLKVLSLKDNNVTAVPTVLPSTLTELYLYNNMIAKIQEDDFNNLNQLQILDLSGNCPRCYNAPFPCAPCKNNSPLQIPVNAFDALTELKVLRLHSNSLQHVPPRWFKNINKLQELDLSQNFLAKEIGDAKFLHFLPSLIQLDLSFNFELQVYRASMNLSQAFSSLKSLKILRIRGYVFKELKSFNLSPLHNLQNLEVLDLGTNFIKIANLSMFKQFKRLKVIDLSVNKISPSGDSSEVGFCSNARTSVESYEPQVLEQLHYFRYDKYARSCRFKNKEASFMSVNESCYKYGQTLDLSKNSIFFVKSSDFQHLSFLKCLNLSGNLISQTLNGSEFQPLAELRYLDFSNNRLDLLHSTAFEELHKLEVLDISSNSHYFQSEGITHMLNFTKNLKVLQKLMMNDNDISSSTSRTMESESLRTLEFRGNHLDVLWREGDNRYLQLFKNLLKLEELDISKNSLSFLPSGVFDGMPPNLKNLSLAKNGLKSFSWKKLQCLKNLETLDLSHNQLTTVPERLSNCSRSLKNLILKNNQIRSLTKYFLQDAFQLRYLDLSSNKIQMIQKTSFPENVLNNLKMLLLHHNRFLCTCDAVWFVWWVNHTEVTIPYLATDVTCVGPGAHKGQSVISLDLYTCELDLTNLILFSLSISVSLFLMVMMTASHLYFWDVWYIYHFCKAKIKGYQRLISPDCCYDAFIVYDTKDPAVTEWVLAELVAKLEDPREKHFNLCLEERDWLPGQPVLENLSQSIQLSKKTVFVMTDKYAKTENFKIAFYLSHQRLMDEKVDVIILIFLEKPFQKSKFLQLRKRLCGSSVLEWPTNPQAHPYFWQCLKNALATDNHVAYSQVFKETV
# B2: PANK4 (endogenous, A549 cells) (protein, UniProt Q9NVE7 1-773)
# chain: MAECGASGSGSSGDSLDKSITLPPDEIFRNLENAKRFAIDIGGSLTKLAYYSTVQHKVAKVRSFDHSGKDTEREHEPPYEISVQEEITARLHFIKFENTYIEACLDFIKDHLVNTETKVIQATGGGAYKFKDLIEEKLRLKVDKEDVMTCLIKGCNFVLKNIPHEAFVYQKDSDPEFRFQTNHPHIFPYLLVNIGSGVSIVKVETEDRFEWVGGSSIGGGTFWGLGALLTKTKKFDELLHLASRGQHSNVDMLVRDVYGGAHQTLGLSGNLIASSFGKSATADQEFSKEDMAKSLLHMISNDIGQLACLHARLHSLDRVYFGGFFIRGHPVTMRTITYSINFFSKGEVQALFLRHEGYLGAIGAFLKGAEQDNPNQYSWGENYAGSSGLMSASPELGPAQRARSGTFDLLEMDRLERPLVDLPLLLDPPSYVPDTVDLTDDALARKYWLTCFEEALDGVVKRAVASQPDSVDAAERAEKFRQKYWNKLQTLRQQPFAYGTLTVRSLLDTREHCLNEFNFPDPYSKVKQRENGVALRCFPGVVRSLDALGWEERQLALVKGLLAGNVFDWGAKAVSAVLESDPYFGFEEAKRKLQERPWLVDSYSEWLQRLKGPPHKCALIFADNSGIDIILGVFPFVRELLLRGTEVILACNSGPALNDVTHSESLIVAERIAGMDPVVHSALQEERLLLVQTGSSSPCLDLSRLDKGLAALVRERGADLVVIEGMGRAVHTNYHAALRCESLKLAVIKNAWLAERLGGRLFSVIFKYEVPAE
# B3: MYC-tagged full-length PANK4 (in HEK293T cells) (protein, UniProt Q9NVE7 1-773)
# chain: B2 chain
# B4: Myc-tagged PANK4 (in A549 cells) (protein, UniProt Q9NVE7 1-773)
# chain: B2 chain
# How the values were obtained:
# Assay in all cases: co-IP
# [1] = biological target: T1, Flag-tagged UNC93B1 (in A549 cells) (UniProt Q9H1C4)
# T1 sequence: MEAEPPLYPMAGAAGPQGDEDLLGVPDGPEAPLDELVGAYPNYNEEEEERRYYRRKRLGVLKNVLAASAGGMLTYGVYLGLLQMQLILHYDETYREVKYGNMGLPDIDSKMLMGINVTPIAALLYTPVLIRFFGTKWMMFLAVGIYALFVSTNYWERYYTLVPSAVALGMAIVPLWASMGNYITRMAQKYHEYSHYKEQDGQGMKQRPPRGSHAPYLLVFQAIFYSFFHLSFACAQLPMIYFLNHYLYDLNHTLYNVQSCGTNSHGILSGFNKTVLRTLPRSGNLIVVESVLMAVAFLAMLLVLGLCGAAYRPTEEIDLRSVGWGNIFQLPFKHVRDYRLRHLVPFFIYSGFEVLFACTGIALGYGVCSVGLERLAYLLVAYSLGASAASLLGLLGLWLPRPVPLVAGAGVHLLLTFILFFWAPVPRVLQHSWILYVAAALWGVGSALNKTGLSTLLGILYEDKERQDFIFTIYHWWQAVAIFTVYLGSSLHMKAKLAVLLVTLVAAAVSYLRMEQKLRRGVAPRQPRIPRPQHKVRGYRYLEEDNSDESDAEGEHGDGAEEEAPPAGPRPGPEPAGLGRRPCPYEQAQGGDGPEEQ
# [2] = biological target: Flag-tagged influenza virus PB1 (in HEK293T cells) (influenza A virus (strain not stated)) (UniProt P03431)
# [3] = biological target: Flag-tagged influenza virus NS1 (in HEK293T cells) (influenza A virus (strain not stated)) (UniProt P03496)
# [4] = biological target: Flag-tagged influenza virus PB1 (in A549 cells) (influenza A virus (strain not stated)) (UniProt P03431)
# [5] = biological target: Flag-tagged influenza virus NS1 (in A549 cells) (influenza A virus (strain not stated)) (UniProt P03496)
binder,measurement,setting,value
B1,binding,[1],binds
B2,binding,[1],binds
B3,binding,[2],binds
same,binding,[3],binds
B4,binding,[4],binds
same,binding,[5],binds
